Earlier results as cited in patent US20150105377A1, “Methods and Compositions for RAF Kinase Mediated Diseases” (ARIAD Pharmaceuticals, Inc., priority 2012, published 2015).
At least one compound was matched to its structure with a doubt left.

Tested on: BRAF mutant colorectal cancers
Conditions: cited from earlier work

CCCS(=O)(=O)Nc1ccc(F)c(C(=O)c2c[nH]c3ncc(-c4ccc(Cl)cc4)cc23)c1F [vemurafenib]
response rates: ~5%
